{"source": "patent US20190218170A1", "about": "“BRANCHED TRIALKYLAMINE PRECURSORS, INTERMEDIATES, PRODUCTS MADE THEREFROM AND PROCESSES OF MANUFACTURE” (priority 2018, published 2019)", "key": {"[1]": {"test": "Stain removal in cold water, brightness L*", "details": "Sebum; additive 0.05% active in wash solution of 12% LAE7 base formulation; 20° C."}, "[2]": {"test": "Stain removal in cold water, brightness L*", "details": "Red lipstick; additive 0.05% active in wash solution of 12% LAE7 base formulation; 20° C.", "description": "Amine oxides with linear and branched hydrophobes were compared in a screen for stain removal in cold water. Simple laundry liquid formulations were made that included only surfactants and builder.\nStandard stain swatches were purchased from Testfabrics, Inc. (West Pittston, Pa.). STC/CFT PC-S-216 is diluted red lipstick on poly/cotton (65/35), and STC/CFT PC-S-132 is high discriminative sebum (synthetic) with pigment on poly/cotton, both made by Center for Testmaterials BV (CFT; The Netherlands). The swatches were pre-cut into 2 inch squares. The test formulation was diluted with DI water to 0.06% total surfactant to make the wash solution. Additives were added at a final concentration of 0.05% active in the wash solution. Stained fabric swatches were added to the wash solution, washed and rinsed at 20° C., and air-dried. The average swatch brightness (L*) for each treatment, and standard deviation, are reported for 3 replicates. […] All treatments are brighter than the untreated stain swatches. The nonionics NPE and LAE7 removed the lipstick and sebum stains to the same brightness."}}}
{"smiles": "CCCCCCCCCCCC[N+](C)(C)[O-]", "note": "[LAO, N,N-dimethyl laurylamine oxide, reference compound]", "values": [{"measurement": "avg L*", "setting": "[1]", "result": 72.8}, {"measurement": "avg L*", "setting": "[2]", "result": 74.8}]}
